Test results published in PMC3206951.

Target: T1, RpkA-GFP (Receptor phosphatidylinositol kinase A with GFP fused to the C-terminus) (D. discoideum) (UniProt Q86D86)
T1 sequence: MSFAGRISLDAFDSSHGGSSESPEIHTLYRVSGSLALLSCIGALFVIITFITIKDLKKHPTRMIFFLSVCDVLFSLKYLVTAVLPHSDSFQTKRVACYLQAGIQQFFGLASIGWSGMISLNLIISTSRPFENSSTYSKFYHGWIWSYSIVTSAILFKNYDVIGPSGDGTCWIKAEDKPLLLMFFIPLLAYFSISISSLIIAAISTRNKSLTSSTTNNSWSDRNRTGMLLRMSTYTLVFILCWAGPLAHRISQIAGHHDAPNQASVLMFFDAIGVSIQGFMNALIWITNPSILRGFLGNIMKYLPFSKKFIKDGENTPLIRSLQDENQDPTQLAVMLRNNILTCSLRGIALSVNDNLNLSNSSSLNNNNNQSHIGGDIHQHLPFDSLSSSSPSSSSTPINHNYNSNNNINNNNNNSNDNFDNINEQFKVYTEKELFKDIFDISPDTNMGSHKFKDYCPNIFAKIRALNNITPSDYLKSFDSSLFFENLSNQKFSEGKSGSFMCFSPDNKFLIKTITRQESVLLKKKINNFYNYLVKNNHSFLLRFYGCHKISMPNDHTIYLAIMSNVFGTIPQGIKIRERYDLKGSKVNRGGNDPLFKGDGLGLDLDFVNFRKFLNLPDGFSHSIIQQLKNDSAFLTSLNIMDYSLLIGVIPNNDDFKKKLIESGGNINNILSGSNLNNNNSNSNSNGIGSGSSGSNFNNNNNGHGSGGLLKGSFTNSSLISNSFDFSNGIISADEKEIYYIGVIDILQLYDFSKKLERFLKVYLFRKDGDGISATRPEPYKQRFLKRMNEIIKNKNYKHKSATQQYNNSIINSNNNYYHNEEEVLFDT
Experiment: affinity purification with mass spectrometry; RpkA-GFP immunoprecipitated from cell lysates with polyclonal GFP antibodies coupled to protein A beads; lysis in 50 mM Tris-HCl pH 7.4, 100 mM NaCl, 0.5% NP40; SDS-PAGE, Coomassie Blue, LC-MS/MS; GFP as a control

- binding: binds
B1: VatC, subunit C of the V-ATPase (protein, UniProt P54648 1-368)
chain: MSETQEFWLISAPNLPGADIFDQVNQKTAKENSLSENKKFNTPALRVGTLNSLITLNDELQKIDTIVESTTKKIARQLVDLVGTKPGKDKSLSINGHTIPQYLQQFAWDDAKYNLKLSLQEIVEKISSAVSKIDDDLKIKSSEYSTLSSSVASEERKASGNLQVRTLNDLITADNIVQTDYFTTAFVVIPKQSEKEFLACYETISDFVLGRSAKRVAQDNDYFLYSVILFKKFYENFKTKIIEKKWVVRDFKLEDNKPTQERSKLTEDKKNCRTSLIRWCRLNFPEAFMAWVHLKVVRVFVESVLRFGIPFNFQAILMKPQKGADKKVRDILFDQFKYLGSAHISGKNETDDSEKFYPYISVSVNWEN

- binding: binds
B2: VatM, subunit M of the V-ATPase (membrane-spanning subunit) (protein, UniProt Q54E04 1-815)
chain: MSFLRPSIWRSSPMQMVQLFVQIEAAHDTVDELGKLGLIQFLDDNEHVNLFQRNFVNEVKRCDDMEKKLKFFEDQVKKEPKLQKLLPDNMLSVVDDDSQMDELEGRFDELESELKQVNANQETLQRNYNELIQLRHVLTKDSVFFQENPNLIEGEGHEHSARSPLLAEDQHVSEVAKQGVKLGFITGVMNTDKMPQFQRSLWRTTRGNNYVKDARIEEEIIDPQTGEETAKTVFIVFFQGERLQQKIKKICESFGANIYDCPDNSFERSNLLQKVTVRITDLYEVLQRSKDHKRQTLAGIVPRLYSWKKKVLLEKSIYHTMNLFDYDVGRKCLIAKGWTPKDKIEEIQLALRTATTRSGALVPSVLSIIKTEGSPPTHFETNKYTSSFQEIVNAYGIAHYREVNPAVLTIVTFPFLFGVMFGDVGHGALLLLSALGLISLEKKLAGKKLNELIQMPFDGRYVLFLMSLFSIYVGFIYNECFSIPMNIFGSQYNLNSTTGLYTYQHTDRVYPVGVDPLWKGAPNELVYYNSFKMKLSIIFGVVQMSVGICFSLLNYLNQKGPIKIVNILTQFVPQMIFLWSIFGYMSVLIILKWVVPYRSFEVDKVDPPFILPTIIAMFLSPGGTPDVVFFSGQGAVQTALLFLALISIPVMLVIKPLFMKRFHFQEVERKKLGHHEEEHDDEALYTGHHGEEFEMGEVFVHQVIHTIEFVLGAVSNTASYLRLWALSLAHSELSSVFWERILIGQVERGNPFLAFVGFGAWLGASVAVLLLMESLSAFLHALRLHWVEFQNKFYIGDGVRFIPYSATRILSEDDE

Results are given in words; binding and its absence hold for the method and conditions named. Binding seen in cells or lysates may run through a third protein. These calls come from enrichment with a bait or labelling near it, and not all partners need be listed. Where a sequence is shown, tags or fusion partners need not be part of it. Each block holds one binder with its values, some of them ahead of it.
